Values quoted from earlier work, collected in paper PMC6061700 (Toxicological Sciences, 2018).
Marks after values point to notes of the source that are not given here.

Settings: free clinical Cmax; ref Kramer et al. (2013); cited from earlier work

COC(=O)C1=C(C)NC(C)=C(C(=O)OC)C1c1ccccc1[N+](=O)[O-] [Nifedipine]
Free Drug (free Cmax): 0.008* µM
